# Patent US20110129932A1, “Lipoprotein Assay” (L3 TECHNOLOGY LIMITED, priority 2006, published 2011)
# Experiments:
# LDL [1] = assay: K-37 fluorescence in LDL with and without octanoate (Example 4)
# HDL = assay: Nile Red discrimination between lipoprotein classes (Examples 3 and 5)
# LDL [2] = assay: Nile Red fluorescence in LDL with and without octanoate (Example 5)
smiles,measurement,setting,value
"CN(C)c1ccc(/C=C/C(=O)c2ccc(S(=O)(=O)C(F)F)cc2)cc1 [K-37, 4-dimethylamino-4′-difluoromethyl-sulphonyl-benzylidene-acetophenone]",Fluorescence Intensity,LDL [1]; 0.5 mM K-37 plus 5 mM LDL,213500 units
same,Fluorescence Intensity,LDL [1]; 0.5 mM K-37 plus 5 mM LDL + 0.1 M sodium octanoate,209700 units
CCN(CC)c1ccc2nc3c4ccccc4c(=O)cc-3oc2c1 [Nile Red],fluorescence in HDL relative to VLDL and LDL,HDL; excitation at 460 nm,about 2 times
same,fluorescence enhancement in HDL relative to VLDL and LDL,"HDL; excited at 460 nm, emission 620 nm",twice
same,fluorescence in HDL relative to VLDL and LDL,HDL; excited at 600 nm,about 5 times
same,fluorescence in HDL relative to VLDL and LDL,"HDL; excited at 600 nm, listed as Nile red",> 5 times
same,Fluorescence Intensity,LDL [2]; 0.5 mM Nile Red plus 5 mM LDL,187.532 units
same,Fluorescence Intensity,LDL [2]; 0.5 mM Nile Red plus 5 mM LDL + 50 mM octanoate,183.786 units
